Source: patent US20120041056A1, “NUCLEIC ACIDS SPECIFICALLY BINDING WITH HUMAN FACTOR VII/VIIA AND USES THEREOF” (LFB BIOTECHNOLOGIES, published 2012)
The exact form of at least one protein or probe is not confirmed. A negative result means that nothing was seen under these conditions.

Tested on: Polyvalent immunoglobulins (Tegeline)
Test: SPR
Conditions: 5' spacer of 4 PEG(C18) and terminal biotin; 62-500 nM immunoglobulins; no binding; purified native protein; protein details: Tegeline, LFB; label: 5'-biotin; single-stranded DNA

GGGAGATAGCCACGACCTATGCAGCCAGCCGCAGTGTAAGTGAATGCAGACATGGTCTAAGTGTCCAGGCTGTGCGAAAGC [Mapt2 (biotin-PEG)]
binding result: no binding
